The reference is the same well before dosing, and untreated signal decays as well.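 Labels refer to human fibroblasts, largely primary: uterine (C12385, HUF), lung (H6013), bone (Hs27A), adrenal (HADF), skin (WS1), plus mammary HMF and breast cancer-associated Hs343T. Cancer lines are basal-like or mesenchymal-like triple-negative breast cancer. The paper counts as hits responses shifting over 3x the replicate standard deviation. The tissue of the other fibroblasts is not given here.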
Tested on: BT20
Assay: relative JC-1 red fluorescence (viability) vs pre-drug, coculture with fibroblast (fraction); higher = more viable cancer cells
Details: 10 µM
Description: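 JC-1 labelled TNBC cells cocultured 1:1 (1,500 cells each) with CellTrace Violet stained primary or stromal fibroblasts in 384-well plates in FluoroBrite medium, treated with one of 42 anticancer drugs at 0.1, 1, 10 or 100 uM. JC-1 red fluorescence (mitochondrial integrity in cancer cells only) was read by plate reader every 8 h for 72 h. Values are normalised to each well's pre-drug value. The stock of one drug was tenfold lower, so its dose labels may be too high.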

CC(=O)O[C@H]1C(=O)[C@@]2(C)[C@H]([C@H](OC(=O)c3ccccc3)[C@]3(O)C[C@H](OC(=O)[C@H](O)[C@@H](NC(=O)c4ccccc4)c4ccccc4)C(C)=C1C3(C)C)[C@]1(OC(C)=O)CO[C@@H]1C[C@@H]2O [Paclitaxel]
relative JC-1 red fluorescence
Details | 24 h | 32 h | 40 h | 48 h | 56 h | 64 h | 72 h
coculture fibroblast: C12385 | – | 0.784 | 0.746 | 0.726 | 0.683 | 0.646 | 0.622
coculture fibroblast: H6013 | – | 0.8413 | 0.797 | 0.78 | 0.795 | 0.779 | 0.759
coculture fibroblast: H6019 | – | 0.828 | 0.796 | 0.7785 | 0.761 | 0.741 | 0.731
coculture fibroblast: H6076 | – | 0.818 | 0.775 | 0.7453 | 0.741 | 0.748 | 0.748
coculture fibroblast: H6231 | 0.845 | 0.759 | 0.702 | 0.632 | 0.603 | 0.564 | 0.532
coculture fibroblast: HADF | 0.837 | 0.792 | 0.744 | 0.689 | 0.67 | 0.645 | 0.621
coculture fibroblast: HCFa | 0.817 | 0.749 | 0.675 | 0.622 | 0.578 | 0.551 | 0.525
coculture fibroblast: HCPF | 0.8266 | 0.761 | 0.693 | 0.623 | 0.578 | 0.555 | 0.51
coculture fibroblast: HHSteC | 0.869 | 0.793 | 0.71 | 0.658 | 0.59 | 0.546 | 0.5
coculture fibroblast: HMF | 0.7968 | 0.716 | 0.61 | 0.526 | 0.454 | 0.41 | 0.371
coculture fibroblast: HPFa | 0.928 | 0.842 | 0.812 | 0.752 | 0.728 | 0.695 | 0.664
coculture fibroblast: HUF | 0.87 | 0.798 | 0.735 | 0.673 | 0.637 | 0.605 | 0.586
coculture fibroblast: Hs5 | 0.863 | 0.802 | 0.7317 | 0.675 | 0.615 | 0.578 | 0.563
coculture fibroblast: Hs27A | 0.962 | 0.9576 | 0.921 | 0.906 | 0.896 | 0.859 | 0.831
coculture fibroblast: Hs343T | 0.753 | 0.671 | 0.574 | 0.498 | 0.398 | 0.354 | 0.296
coculture fibroblast: WS1 | 0.7753 | 0.699 | 0.633 | 0.594 | 0.546 | 0.506 | 0.487
